Results as given in the supplement of paper PMC4604168 (melanoma cell lines).
The other results are listed elsewhere or left out. Single values are uncertain, as repeats are few or missing.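 Cells were imaged in 1,536-well plates, and nuclei stained with an antibody against cleaved PARP were counted against all DNA-stained nuclei to give the apoptosis fraction. Screening doses were chosen to leave most cells alive, and resting and induced cleaved-PARP levels differ strongly between cell lines.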

Key:
Test in all cases: cleaved PARP positive nuclei fraction relative to DMSO control; melanoma cells; higher = more apoptosis
Conditions in all cases: library dose: low library concentration; 72 h
CBRC034 = system: CBRC034 (line from a melanoma biopsy)
COLO792 = system: COLO792
COLO800 = system: COLO800
COLO829 = system: COLO829
G361 = system: G361
IPC-298 = system: IPC-298
IST-MEL1 = system: IST-MEL1
LB2518-MEL = system: LB2518-MEL
LOXIMVI = system: LOXIMVI
MEL-HO = system: MEL-HO

Row | SMILES | cleaved PARP positive nuclei fraction (CBRC034) [%] | cleaved PARP positive nuclei fraction (COLO792) [%] | cleaved PARP positive nuclei fraction (COLO800) [%] | cleaved PARP positive nuclei fraction (COLO829) [%] | cleaved PARP positive nuclei fraction (G361) [%] | cleaved PARP positive nuclei fraction (IPC-298) [%] | cleaved PARP positive nuclei fraction (IST-MEL1) [%] | cleaved PARP positive nuclei fraction (LB2518-MEL) [%] | cleaved PARP positive nuclei fraction (LOXIMVI) [%] | cleaved PARP positive nuclei fraction (MEL-HO) [%]
1 | Cn1cc(C2=C(c3cn(C4CCN(Cc5ccccn5)CC4)c4ccccc34)C(=O)NC2=O)c2ccccc21 [Enzastaurin] + CNC(=O)c1cc(Oc2ccc(NC(=O)Nc3ccc(Cl)c(C(F)(F)F)c3)cc2)ccn1 [sorafenib] (first compound 0.8 µM, partner dose 0.4 µM) | 42.3 | 36.4 | 88.1 | 97.2 | 131 | 671 | 40.3 | 106 | 68.3 | 151
2 | Cn1cc(C2=C(c3cn(C4CCN(Cc5ccccn5)CC4)c4ccccc34)C(=O)NC2=O)c2ccccc21 [Enzastaurin] + CN(c1ncccc1CNc1nc(Nc2ccc3c(c2)CC(=O)N3)ncc1C(F)(F)F)S(C)(=O)=O [PF562271] (first compound 0.8 µM, partner dose 0.08 µM) | 62.6 | 46 | 71.4 | 164 | 143 | 41.5 | 60.9 | 54.6 | 93.6 | 105
3 | N.N.[Cl][Pt][Cl] [cisplatin] + Nc1cccc2c1CN(C1CCC(=O)NC1=O)C2=O [lenalidomide] (first compound 1.6 µM, partner dose 1 µM) | 66.9 | 146 | 83.1 | 93.4 | 86.1 | 179 | 63.9 | 158 | 67.8 | 84
4 | C[C@]12O[C@H](C[C@]1(O)CO)n1c3ccccc3c3c4c(c5c6ccccc6n2c5c31)CNC4=O [Lestaurtinib] + CC(=O)c1c(C)c2cnc(Nc3ccc(N4CCNCC4)cn3)nc2n(C2CCCC2)c1=O [palbociclib] (first compound 0.004 µM, partner dose 0.04 µM) | 200 | 121 | 86.4 | 172 | 67.6 | 49.1 | 132 | 182 | 136 | 87.2
5 | CCCCCCCCCCCCCCCCCCOP(=O)([O-])OC1CC[N+](C)(C)CC1 [Perifosine] + Cn1cc(C2=C(c3cn(C4CCN(Cc5ccccn5)CC4)c4ccccc34)C(=O)NC2=O)c2ccccc21 [Enzastaurin] (first compound 0.4 µM, partner dose 0.8 µM) | 164 | 78.1 | 104 | 56.7 | 92.5 | 91 | 495 | 143 | 239 | 56.2
6 | Cn1cc(C2=C(c3cn(C4CCN(Cc5ccccn5)CC4)c4ccccc34)C(=O)NC2=O)c2ccccc21 [Enzastaurin] + Cn1sc(=O)n(Cc2ccccc2)c1=O [TDZD-8] (first compound 0.8 µM, partner dose 0.4 µM) | 61 | 60.2 | 98.9 | 24.9 | 61.3 | 74.8 | 60.2 | 45.6 | 53.8 | 131
7 | CC1(C)CCC(c2ccc(Cl)cc2)=C(CN2CCN(c3ccc(C(=O)NS(=O)(=O)c4ccc(N[C@H](CCN5CCOCC5)CSc5ccccc5)c(S(=O)(=O)C(F)(F)F)c4)cc3)CC2)C1 + C[As](C)SC[C@H](NC(=O)CC[C@H](N)C(=O)O)C(=O)NCC(=O)O [Darinaparsin] (first compound 0.4 µM, partner dose 0.4 µM) | 261 | 190 | 47.8 | 85.7 | 123 | 83.7 | 137 | 208 | 113 | 155
8 | CCN(CC)CCNC(=O)c1c(C)[nH]c(/C=C2\C(=O)Nc3ccc(F)cc32)c1C [sunitinib] + C[As](C)SC[C@H](NC(=O)CC[C@H](N)C(=O)O)C(=O)NCC(=O)O [Darinaparsin] (first compound 0.4 µM, partner dose 0.4 µM) | 72.9 | 93.1 | 148 | 126 | 85.4 | 46.3 | 40.9 | 116 | 182 | 145
9 | NC(=O)c1ccc(N(C(N)=O)c2c(F)cccc2F)nc1-c1ccc(F)cc1F + C[As](C)SC[C@H](NC(=O)CC[C@H](N)C(=O)O)C(=O)NCC(=O)O [Darinaparsin] (first compound 0.4 µM, partner dose 0.4 µM) | 43.8 | 214 | 94.7 | 65 | 75.5 | 85.3 | 29.5 | 93 | 39.8 | 121
10 | N.N.[Cl][Pt][Cl] [cisplatin] + CN1CCN(c2ccc3nc(-c4c(N)c5c(F)cccc5[nH]c4=O)[nH]c3c2)CC1 [Dovitinib] (first compound 1.6 µM, partner dose 0.1 µM) | 148 | 109 | 58.3 | 62.7 | 85.9 | 121 | 94.2 | 94 | 150 | 58
11 | C=CCNC1=C2C[C@@H](C)C[C@H](OC)[C@H](O)[C@@H](C)/C=C(\C)[C@H](OC(N)=O)[C@@H](OC)/C=C\C=C(/C)C(=O)NC(=CC1=O)C2=O [Tanespimycin] + C[As](C)SC[C@H](NC(=O)CC[C@H](N)C(=O)O)C(=O)NCC(=O)O [Darinaparsin] (first compound 0.002 µM, partner dose 0.4 µM) | 149 | 136 | 109 | 72.7 | 67.4 | 175 | 122 | 111 | 123 | 93.6
12 | Cn1cnc2c(F)c(Nc3ccc(Br)cc3Cl)c(C(=O)NOCCO)cc21 [selumetinib] + Cn1cc(C2=C(c3cn(C4CCN(Cc5ccccn5)CC4)c4ccccc34)C(=O)NC2=O)c2ccccc21 [Enzastaurin] (first compound 0.015 µM, partner dose 0.8 µM) | 37.7 | 119 | 96.4 | 123 | 121 | 201 | 64.7 | 177 | 178 | 56
13 | Cn1cc(C2=C(c3cn(C4CCN(Cc5ccccn5)CC4)c4ccccc34)C(=O)NC2=O)c2ccccc21 [Enzastaurin] + C[C@]12O[C@H](C[C@]1(O)CO)n1c3ccccc3c3c4c(c5c6ccccc6n2c5c31)CNC4=O [Lestaurtinib] (first compound 0.8 µM, partner dose 0.004 µM) | 201 | 77.7 | 85.9 | 57.7 | 62.3 | 114 | 28.8 | 123 | 70.5 | 63.9
14 | N.N.[Cl][Pt][Cl] [cisplatin] + C=CCNC1=C2C[C@@H](C)C[C@H](OC)[C@H](O)[C@@H](C)/C=C(\C)[C@H](OC(N)=O)[C@@H](OC)/C=C\C=C(/C)C(=O)NC(=CC1=O)C2=O [Tanespimycin] (first compound 1.6 µM, partner dose 0.002 µM) | 44.1 | 123 | 154 | 92.8 | 206 | 41.3 | 190 | 409 | 121 | 86.6
15 | N.N.[Cl][Pt][Cl] [cisplatin] + COCC[n+]1c2c(n(Cc3cnccn3)c1C)C(=O)c1ccccc1C2=O [YM155] (first compound 1.6 µM, partner dose 0.0004 µM) | 190 | 161 | 159 | 59.5 | 51.2 | 43.5 | 128 | 206 | 177 | 179
16 | Cn1sc(=O)n(Cc2ccccc2)c1=O + C[C@]12O[C@H](C[C@]1(O)CO)n1c3ccccc3c3c4c(c5c6ccccc6n2c5c31)CNC4=O [Lestaurtinib] (first compound 0.4 µM, partner dose 0.004 µM) | 126 | 92.7 | 51.8 | 173 | 100 | 42.6 | 182 | 60.1 | 128 | 75.9
17 | CC1(C)CCC(c2ccc(Cl)cc2)=C(CN2CCN(c3ccc(C(=O)NS(=O)(=O)c4ccc(N[C@H](CCN5CCOCC5)CSc5ccccc5)c(S(=O)(=O)C(F)(F)F)c4)cc3)CC2)C1 + C[C@]12O[C@H](C[C@]1(O)CO)n1c3ccccc3c3c4c(c5c6ccccc6n2c5c31)CNC4=O [Lestaurtinib] (first compound 0.4 µM, partner dose 0.004 µM) | 77.7 | 271 | 55.2 | 70 | 167 | 150 | 73.5 | 207 | 81.2 | 17.5
18 | Cn1cc(C2=C(c3cn(C4CCN(Cc5ccccn5)CC4)c4ccccc34)C(=O)NC2=O)c2ccccc21 [Enzastaurin] + CC(C)C[C@H](NC(=O)[C@H](Cc1ccccc1)NC(=O)c1cnccn1)B(O)O [Bortezomib] (first compound 0.8 µM, partner dose 0.001 µM) | 409 | 105 | 146 | 148 | 1190 | 46.3 | 115 | 196 | 104 | 113
19 | C=C(c1ccc(C(=O)O)cc1)c1cc2c(cc1C)C(C)(C)CCC2(C)C [Bexarotene] + C[As](C)SC[C@H](NC(=O)CC[C@H](N)C(=O)O)C(=O)NCC(=O)O [Darinaparsin] (first compound 2 µM, partner dose 0.4 µM) | 31.8 | 94.2 | 87.9 | 127 | 78.7 | 117 | 72.3 | 48.6 | 93.4 | 39.2
20 | CN(c1ncccc1CNc1nc(Nc2ccc3c(c2)CC(=O)N3)ncc1C(F)(F)F)S(C)(=O)=O + N.N.[Cl][Pt][Cl] [cisplatin] (first compound 0.08 µM, partner dose 1.6 µM) | 140 | 159 | 72.3 | 317 | 89.9 | 119 | 128 | 24.7 | 31.6 | 138
21 | N.N.[Cl][Pt][Cl] [cisplatin] + C[As](C)SC[C@H](NC(=O)CC[C@H](N)C(=O)O)C(=O)NCC(=O)O [Darinaparsin] (first compound 1.6 µM, partner dose 0.4 µM) | 44.5 | 99 | 90.8 | 119 | 162 | 117 | 233 | 198 | 125 | 129

Full records from above. Order of values: cleaved PARP positive nuclei fraction (CBRC034) [%]	cleaved PARP positive nuclei fraction (COLO792) [%]	cleaved PARP positive nuclei fraction (COLO800) [%]	cleaved PARP positive nuclei fraction (COLO829) [%]	cleaved PARP positive nuclei fraction (G361) [%]	cleaved PARP positive nuclei fraction (IPC-298) [%]	cleaved PARP positive nuclei fraction (IST-MEL1) [%]	cleaved PARP positive nuclei fraction (LB2518-MEL) [%]	cleaved PARP positive nuclei fraction (LOXIMVI) [%]	cleaved PARP positive nuclei fraction (MEL-HO) [%]
N.N.[Cl][Pt][Cl] [cisplatin] + Nc1cccc2c1CN(C1CCC(=O)NC1=O)C2=O [lenalidomide] (first compound 1.6 µM, partner dose 1 µM) as listed: 66.9	146	83.1	93.4	86.1	179	63.9	158	67.8	84
C=CCNC1=C2C[C@@H](C)C[C@H](OC)[C@H](O)[C@@H](C)/C=C(\C)[C@H](OC(N)=O)[C@@H](OC)/C=C\C=C(/C)C(=O)NC(=CC1=O)C2=O [Tanespimycin] + C[As](C)SC[C@H](NC(=O)CC[C@H](N)C(=O)O)C(=O)NCC(=O)O [Darinaparsin] (first compound 0.002 µM, partner dose 0.4 µM) as listed: 149	136	109	72.7	67.4	175	122	111	123	93.6
